Some entries share one result that the patent states for a list of compounds.
These compounds were tested on Mtb (assay: Isoniazid MIC shift on Mtb MIC plates (broth microdilution MIC)).
Assay type: cell-based, M. tuberculosis

SMILES | amount of isoniazid needed to inhibit growth
CC(C)(C)c1ccc(NC(=O)[C@H]2CCC3C4CNC5=CC(=O)CC[C@]5(C)C4CC[C@@]32C)cc1 (stereo partly drawn) [Compound 112] | decreased the amount of isoniazid needed to inhibit growth of bacterial isolates
COc1nc(OC(F)(F)F)c(NC(=O)C2CCC3C4CN(C(=O)OC(C)(C)C)C5=CC(=O)CC[C@]5(C)C4CC[C@]23C)cc1Br (stereo partly drawn) [Compound 107] | decreased the amount of isoniazid needed to inhibit growth of bacterial isolates
CCCN1CC2C(CC[C@@]3(C)C2CC[C@@H]3C(=O)Nc2cc(C(C)(C)C)ccc2C(C)(C)C)[C@@]2(C)CCC(=O)C=C12 (stereo partly drawn) [Compound 114] | decreased the amount of isoniazid needed to inhibit growth of bacterial isolates
CC(C)(C)c1cc(NC(=O)[C@H]2CCC3C4CNC5=CC(=O)CC[C@]5(C)C4CC[C@@]32C)cc(C(C)(C)C)c1 (stereo partly drawn) [Compound 109] | decreased the amount of isoniazid needed to inhibit growth of bacterial isolates
CC(C)(C)c1ccc(C(C)(C)C)c(NC(=O)[C@H]2CCC3C4CNC5=CC(=O)CC[C@]5(C)C4CC[C@@]32C)c1 (stereo partly drawn) [Compound 100] | decreased the amount of isoniazid needed to inhibit growth of bacterial isolates
CN1CC2C(CC[C@@]3(C)C2CC[C@@H]3C(=O)Nc2cc(C(C)(C)C)ccc2C(C)(C)C)[C@@]2(C)CCC(=O)C=C12 (stereo partly drawn) [Compound 113] | decreased the amount of isoniazid needed to inhibit growth of bacterial isolates
COc1nc(OC(F)(F)F)c(NC(=O)C2CCC3C4CNC5=CC(=O)CC[C@]5(C)C4CC[C@]23C)cc1Br (stereo partly drawn) [Compound 105] | decreased the amount of isoniazid needed to inhibit growth of bacterial isolates
CC1C[C@@]2(C)C(=CC1=O)N(C)CC1C2CC[C@@]2(C)C1CC[C@@H]2C(=O)Nc1cc(C(C)(C)C)ccc1C(C)(C)C (stereo partly drawn) [Compound 104] | decreased the amount of isoniazid needed to inhibit growth of bacterial isolates
CC(C)(C)OC(=O)N1CC2C(CC[C@@]3(C)C2CC[C@@H]3C(=O)Nc2cc(C(F)(F)F)ccc2C(F)(F)F)[C@@]2(C)CCC(=O)C=C12 (stereo partly drawn) [Compound 103] | decreased the amount of isoniazid needed to inhibit growth of bacterial isolates

— patent US11072633B2 (priority 2016, dated 2021)
